From the supplement of paper PMC4604168 (melanoma cell lines)
Some of the results follow. Single values are uncertain, as repeats are few or missing.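 Cells were imaged in 1,536-well plates, and nuclei stained with an antibody against cleaved PARP were counted against all DNA-stained nuclei to give the apoptosis fraction. Screening doses were chosen to leave most cells alive, and resting and induced cleaved-PARP levels differ strongly between cell lines.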

Experiments:
Test in all cases: cleaved PARP positive nuclei fraction relative to DMSO control; melanoma cells; higher = more apoptosis
Details in all cases: library dose: low library concentration; 72 h
501Mel = tested on: 501Mel
A101D = tested on: A101D
A2058 = tested on: A2058
A375 = tested on: A375
C32 = tested on: C32
CBRC008 = tested on: CBRC008 (line from a melanoma biopsy)
CBRC013 = tested on: CBRC013 (line from a melanoma biopsy)
CBRC014 = tested on: CBRC014 (line from a melanoma biopsy)
CBRC016 = tested on: CBRC016 (line from a melanoma biopsy)
CBRC017 = tested on: CBRC017 (line from a melanoma biopsy)
COLO792 = tested on: COLO792
COLO800 = tested on: COLO800
COLO829 = tested on: COLO829
G361 = tested on: G361
IPC-298 = tested on: IPC-298
IST-MEL1 = tested on: IST-MEL1
LB2518-MEL = tested on: LB2518-MEL
LOXIMVI = tested on: LOXIMVI
MEL-HO = tested on: MEL-HO
CBRC034 = tested on: CBRC034 (line from a melanoma biopsy)

In the case of `Cc1ccc(Nc2nccc(N(C)c3ccc4c(C)n(C)nc4c3)n2)cc1S(N)(=O)=O` [Pazopanib] + NC(=O)Nc1cc(-c2cccc(F)c2)sc1C(=O)N[C@H]1CCCNC1 [AZD7762] (first compound 0.4 µM, partner dose 0.02 µM), the “cleaved PARP positive nuclei fraction” value (501Mel) is reported as 83%, the “cleaved PARP positive nuclei fraction” value (A101D) is reported as 147% and the “cleaved PARP positive nuclei fraction” value (A2058) is reported as 91.6%. The “cleaved PARP positive nuclei fraction” value (A375) was 357%, the “cleaved PARP positive nuclei fraction” value (C32) was 104% and the “cleaved PARP positive nuclei fraction” value (CBRC008) was 73.5%. For the same compound, the “cleaved PARP positive nuclei fraction” value (CBRC013) was 95.9%, the “cleaved PARP positive nuclei fraction” value (CBRC014) was 123% and the “cleaved PARP positive nuclei fraction” value (CBRC016) was 99%. For the same compound, the “cleaved PARP positive nuclei fraction” value (CBRC017) was 91.5%, the “cleaved PARP positive nuclei fraction” value (COLO792) was 157% and the “cleaved PARP positive nuclei fraction” value (COLO800) was 136%. The “cleaved PARP positive nuclei fraction” value (COLO829) was 72.6%, the “cleaved PARP positive nuclei fraction” value (G361) was 125% and the “cleaved PARP positive nuclei fraction” value (IPC-298) was 35.9%. For the same compound, the “cleaved PARP positive nuclei fraction” value (IST-MEL1) was 126%, the “cleaved PARP positive nuclei fraction” value (LB2518-MEL) was 176% and the “cleaved PARP positive nuclei fraction” value (LOXIMVI) was 54%. The “cleaved PARP positive nuclei fraction” value (MEL-HO) was 117%.

With `Cc1cn(-c2cc(NC(=O)c3ccc(C)c(Nc4nccc(-c5cccnc5)n4)c3)cc(C(F)(F)F)c2)cn1` [nilotinib] + COc1cc(Nc2ncc(F)c(Nc3ccc4c(n3)NC(=O)C(C)(C)O4)n2)cc(OC)c1OC [Tamatinib] (first compound 0.2 µM, partner dose 0.4 µM) the “cleaved PARP positive nuclei fraction” value (501Mel) was 91.4%, the “cleaved PARP positive nuclei fraction” value (A101D) was 112% and the “cleaved PARP positive nuclei fraction” value (A2058) was 166%. The “cleaved PARP positive nuclei fraction” value (A375) was 245%, the “cleaved PARP positive nuclei fraction” value (C32) was 187% and the “cleaved PARP positive nuclei fraction” value (CBRC008) was 132%. For the same compound, the “cleaved PARP positive nuclei fraction” value (CBRC013) was 138%, the “cleaved PARP positive nuclei fraction” value (CBRC014) was 78.4% and the “cleaved PARP positive nuclei fraction” value (CBRC016) was 184%. The “cleaved PARP positive nuclei fraction” value (CBRC017) was 177%, the “cleaved PARP positive nuclei fraction” value (COLO792) was 70.6% and the “cleaved PARP positive nuclei fraction” value (COLO800) was 127%. For the same compound, the “cleaved PARP positive nuclei fraction” value (COLO829) was 82.2%, the “cleaved PARP positive nuclei fraction” value (G361) was 264% and the “cleaved PARP positive nuclei fraction” value (IPC-298) was 99.4%. The “cleaved PARP positive nuclei fraction” value (IST-MEL1) was 21.9%, the “cleaved PARP positive nuclei fraction” value (LB2518-MEL) was 288% and the “cleaved PARP positive nuclei fraction” value (LOXIMVI) was 228%. For the same compound, the “cleaved PARP positive nuclei fraction” value (MEL-HO) was 332%.

`CCCCCCCCCCCCCCCCCCOP(=O)([O-])OC1CC[N+](C)(C)CC1` [Perifosine] + O=C(Nc1cccc(Cl)c1)Nc1ncc(CCNc2ncnc3ccsc23)s1 [SNS314] (first compound 0.4 µM, partner dose 0.0008 µM) was tested, and the “cleaved PARP positive nuclei fraction” value (501Mel) was 99.7%, the “cleaved PARP positive nuclei fraction” value (A101D) was 96.1% and the “cleaved PARP positive nuclei fraction” value (A2058) was 222%. For the same compound, the “cleaved PARP positive nuclei fraction” value (A375) was 78.3%, the “cleaved PARP positive nuclei fraction” value (C32) was 58.9% and the “cleaved PARP positive nuclei fraction” value (CBRC008) was 71.6%. For the same compound, the “cleaved PARP positive nuclei fraction” value (CBRC013) was 89.6%, the “cleaved PARP positive nuclei fraction” value (CBRC014) was 105% and the “cleaved PARP positive nuclei fraction” value (CBRC016) was 196%. For the same compound, the “cleaved PARP positive nuclei fraction” value (CBRC017) was 158%, the “cleaved PARP positive nuclei fraction” value (COLO792) was 83.1% and the “cleaved PARP positive nuclei fraction” value (COLO800) was 81.3%. The “cleaved PARP positive nuclei fraction” value (COLO829) was 67.6%, the “cleaved PARP positive nuclei fraction” value (G361) was 75.8% and the “cleaved PARP positive nuclei fraction” value (IPC-298) was 87.9%. For the same compound, the “cleaved PARP positive nuclei fraction” value (IST-MEL1) was 25.1%, the “cleaved PARP positive nuclei fraction” value (LB2518-MEL) was 54.9% and the “cleaved PARP positive nuclei fraction” value (LOXIMVI) was 24.7%. For the same compound, the “cleaved PARP positive nuclei fraction” value (MEL-HO) was 209%.

For `CC[C@]1(O)C[C@H]2CN(CCc3c([nH]c4ccccc34)[C@@](C(=O)OC)(c3cc4c(cc3OC)N(C=O)[C@H]3[C@@](O)(C(=O)OC)[C@H](OC(C)=O)[C@]5(CC)C=CCN6CC[C@]43[C@@H]65)C2)C1` [vincristine] + COc1cc2c(Oc3ccc4[nH]c(C)cc4c3F)ncnc2cc1OCCCN1CCCC1 [cediranib] (first compound 0.0001 µM, partner dose 0.4 µM), the “cleaved PARP positive nuclei fraction” value (501Mel) was 40.9%, the “cleaved PARP positive nuclei fraction” value (A101D) was 49.2% and the “cleaved PARP positive nuclei fraction” value (A2058) was 130%. For the same compound, the “cleaved PARP positive nuclei fraction” value (A375) was 163%, the “cleaved PARP positive nuclei fraction” value (C32) was 95.4% and the “cleaved PARP positive nuclei fraction” value (CBRC008) was 57.5%. The “cleaved PARP positive nuclei fraction” value (CBRC013) was 159%, the “cleaved PARP positive nuclei fraction” value (CBRC014) was 69.5% and the “cleaved PARP positive nuclei fraction” value (CBRC016) was 116%. The “cleaved PARP positive nuclei fraction” value (CBRC017) was 101%, the “cleaved PARP positive nuclei fraction” value (COLO792) was 129% and the “cleaved PARP positive nuclei fraction” value (COLO800) was 98.1%. For the same compound, the “cleaved PARP positive nuclei fraction” value (COLO829) was 80.1%, the “cleaved PARP positive nuclei fraction” value (G361) was 137% and the “cleaved PARP positive nuclei fraction” value (IPC-298) was 28.4%. The “cleaved PARP positive nuclei fraction” value (IST-MEL1) was 87.4%, the “cleaved PARP positive nuclei fraction” value (LB2518-MEL) was 92.4% and the “cleaved PARP positive nuclei fraction” value (LOXIMVI) was 37.3%. For the same compound, the “cleaved PARP positive nuclei fraction” value (MEL-HO) was 62.4%.

With `Cc1ccc(Nc2nccc(N(C)c3ccc4c(C)n(C)nc4c3)n2)cc1S(N)(=O)=O` [Pazopanib] + O=C(CCCCCCC(=O)Nc1ccccc1)NO [vorinostat] (first compound 0.4 µM, partner dose 0.08 µM) the “cleaved PARP positive nuclei fraction” value (501Mel) was 73.8%, the “cleaved PARP positive nuclei fraction” value (A101D) was 44.4% and the “cleaved PARP positive nuclei fraction” value (A2058) was 85.3%. The “cleaved PARP positive nuclei fraction” value (A375) was 67.9%, the “cleaved PARP positive nuclei fraction” value (C32) was 47.6% and the “cleaved PARP positive nuclei fraction” value (CBRC008) was 138%. For the same compound, the “cleaved PARP positive nuclei fraction” value (CBRC013) was 83%, the “cleaved PARP positive nuclei fraction” value (CBRC014) was 97% and the “cleaved PARP positive nuclei fraction” value (CBRC016) was 104%. The “cleaved PARP positive nuclei fraction” value (CBRC017) was 98%, the “cleaved PARP positive nuclei fraction” value (COLO792) was 70.9% and the “cleaved PARP positive nuclei fraction” value (COLO800) was 153%. The “cleaved PARP positive nuclei fraction” value (COLO829) was 110%, the “cleaved PARP positive nuclei fraction” value (G361) was 75.4% and the “cleaved PARP positive nuclei fraction” value (IPC-298) was 54.4%. The “cleaved PARP positive nuclei fraction” value (IST-MEL1) was 98.2%, the “cleaved PARP positive nuclei fraction” value (LB2518-MEL) was 74.8% and the “cleaved PARP positive nuclei fraction” value (LOXIMVI) was 118%. The “cleaved PARP positive nuclei fraction” value (MEL-HO) was 150%.

With `O=c1[nH]nc(Sc2ncc([N+](=O)[O-])s2)n1-c1ccc2c(c1)OCCO2` + Cn1c(=O)n(-c2ccc(C(C)(C)C#N)cc2)c2c3cc(-c4cnc5ccccc5c4)ccc3ncc21 [NVP-BEZ235] (first compound 0.2 µM, partner dose 0.004 µM) the “cleaved PARP positive nuclei fraction” value (501Mel) was 221%, the “cleaved PARP positive nuclei fraction” value (A101D) was 132% and the “cleaved PARP positive nuclei fraction” value (A2058) was 86.1%. For the same compound, the “cleaved PARP positive nuclei fraction” value (A375) was 90.7%, the “cleaved PARP positive nuclei fraction” value (C32) was 73.5% and the “cleaved PARP positive nuclei fraction” value (CBRC008) was 101%. The “cleaved PARP positive nuclei fraction” value (CBRC014) was 180%, the “cleaved PARP positive nuclei fraction” value (CBRC016) was 68.9% and the “cleaved PARP positive nuclei fraction” value (CBRC017) was 109%. For the same compound, the “cleaved PARP positive nuclei fraction” value (CBRC034) was 133%, the “cleaved PARP positive nuclei fraction” value (COLO792) was 85% and the “cleaved PARP positive nuclei fraction” value (COLO800) was 393%. The “cleaved PARP positive nuclei fraction” value (COLO829) was 92.5%, the “cleaved PARP positive nuclei fraction” value (G361) was 138% and the “cleaved PARP positive nuclei fraction” value (IPC-298) was 56.7%. The “cleaved PARP positive nuclei fraction” value (IST-MEL1) was 135%, the “cleaved PARP positive nuclei fraction” value (LB2518-MEL) was 62.3% and the “cleaved PARP positive nuclei fraction” value (LOXIMVI) was 84.4%. The “cleaved PARP positive nuclei fraction” value (MEL-HO) was 41.5%.
